Values of other authors as cited in patent US20050107420A1 (Boehringe Ingelheim Pharma GmbH & Co. KG, priority 2002, published 2005).

Conditions: in vivo

For `COc1ccc(C(=O)Nc2c(Cl)cncc2Cl)c2cccnc12` [Formula D4418], the oral absorption is given as “good oral absorption”.
